Measurements taken from US7304166B2, “Benzenesulfonate salt of 4-fluoro-2-cyanopyrrolidine derivatives” (Taisho Pharmaceutical Co., Ltd., priority 2002, dated 2007).
Some of these results come from one statement about several compounds together. At least one structure is not confirmed: it was looked up by name or label, or the drawing left a doubt.

Test: Solid-state stability testing (remaining percentage by HPLC)
Format: physicochemical
Conditions: under either condition (70° C. 3 days; 40° C., 75% RH 1 month)
Procedure: Each analyte (about 1 mg) was precisely metered and stored in a screw-capped test tube covered with aluminum foil for light shielding, which was sealed under heated conditions (70° C.) or opened under heated and humidified conditions (40° C., 75% RH). The remaining percentage of each drug was measured in the following manner. After completion of a given period of storage, the test tubes were supplemented with 10 ml HPLC mobile phase to dissolve the analytes and then provided for quantification by HPLC. The results were compared in area with the initial values obtained before heating or before heating and humidification to calculate the remaining percentage of drugs.
Column temperature: 40° C.
Detection: UV absorptiometer (Detection wavelength: 210 nm)
Mobile phase: water/acetonitrile/phosphoric acid/SDS (700:300:1:2)

| Compound | Remaining percentage of drug |
| --- | --- |
| CC(C)(CO)NCC(=O)N1C[C@@H](F)C[C@H]1C#N.Cl [Reference Example 1, (2S,4S)-2-cyano-4-fluoro-1-[(2-hydroxy-1,1-dimethyl)ethylamino]acetylpyrrolidine hydrochloride salt] | ≤ 97% |
| CC(C)(CO)NCC(=O)N1C[C@@H](F)C[C@H]1C#N.CS(=O)(=O)O [Reference Example 2, (2S,4S)-2-cyano-4-fluoro-1-[(2-hydroxy-1,1-dimethyl)ethylamino]acetylpyrrolidine methanesulfonate salt] | ≤ 97% |
